The values below come from patent US20160115245A1 (VIB VZW, published 2016).

Protein sequences, listed by entry. Tags and fused reporters are not part of them. Residues count along the entry.
UniProt P00441, residues 2-154: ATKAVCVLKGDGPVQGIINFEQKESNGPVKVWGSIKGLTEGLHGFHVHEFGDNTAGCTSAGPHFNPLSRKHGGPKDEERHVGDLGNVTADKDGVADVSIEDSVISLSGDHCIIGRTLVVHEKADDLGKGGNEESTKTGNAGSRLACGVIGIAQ
UniProt P08228, residues 2-154: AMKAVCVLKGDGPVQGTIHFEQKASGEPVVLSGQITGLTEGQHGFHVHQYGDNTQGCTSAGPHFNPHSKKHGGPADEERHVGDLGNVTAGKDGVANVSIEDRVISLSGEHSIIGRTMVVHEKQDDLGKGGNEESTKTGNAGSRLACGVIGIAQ

No constants are given. Whether binding was seen depends on the method and setting. For some assays here: In cells and extracts the contact can be indirect. Some binding calls cover weakened binding; strength is not graded here. Tags and fused reporters may be left off the sequences shown.

The target in assay [1] is SOD1-CFP (human SOD1 fused to CFP, expressed in HeLa cells) (human) (UniProt P00441). Briefly: Ni-agarose pull-down from co-transfected HeLa cells.
The target in assay [2] is recombinant human superoxide dismutase [Cu-Zn] (SOD1), wild type (human) (UniProt P00441). The experiment in a line: Western dot blot on immobilized recombinant SOD1.
Assay [3] concerns the target endogenous SOD1 of NSC-34 cells (mouse) (UniProt P08228). The experiment in a line: co-immunoprecipitation with anti-SOD1 (IP SOD1), Western blot anti-His (WB HIS); non-transfected NSC-34 cells with nanobody added to the medium.
For assay [4] the target is unchanged. The experiment in a line: immunoprecipitation from lysates of co-transfected NSC-34 cells.

B1: Nb3, HA-Myc-His6 tagged, expressed in HeLa cells (VHH, not shown: small tags and cut ends)
VHH: QVQLQESGGGLVQAGGSLRLSCAASGLPYRTVFMGWFRQGPGKEREGVAVINADGVSTYYADSVKGRFTISQDNAKNTVYLQMNSLKPEDTAIYHCAANHFFDYSRDPLATAEYNYWGQGTQVTVSS
Turning to B1, in assay [1], the binding entry is recorded as “binds”.

B2: Nb1, His6-tagged, expressed in E. coli (pET30a) (VHH)
VHH: QVQLQESGGGLVQPGGSLRLSCRASETLFSLYAMGWYRQAPGKQPELIATISGGGEGTGNYADPVKGRFTISRNNADNMVFLQMNNLKPEDTAVYYCNVYGTNLAPWGQGTQVTVSS
notes: Alpaca-derived nanobody; also called SOD1 nanobody from alpaca library; not shown: His6 tag and the pET30a vector residues around it
Take B2: in assay [2], the binding result was “binds”.

B3: Nb1, HA-Myc-His6 tagged, expressed in HeLa cells (VHH, not shown: small tags and cut ends)
VHH: QVQLQESGGGLVQPGGSLRLSCRASETLFSLYAMGWYRQAPGKQPELIATISGGGEGTGNYADPVKGRFTISRNNADNMVFLQMNNLKPEDTAVYYCNVYGTNLAPWGQGTQVTVSS
Consider B3, for which the binding result in assay [1] is “binds”.

B4: SOD1 nanobody protein with His tag and mCaspase-3 recognition site (Nb2, produced by VIB Protein Service Facility) (VHH, not shown: small tags and cut ends)
VHH: QVQLQESGGGSVQAGGSLRLACVASGGDTRPYITYWMGWYRQAPGKEREGVATIYTGGSGTYYSDSVEGRFTISQDKAQRTVYLQMNDLKPEDTAMYYCAAGNGALPPGRRLSPQNMDTWGPGTQVTVSS
With B4, in assay [3], the binding entry is listed as “binds”.

B5: HA-tagged anti-SOD1 nanobody expressed in NSC-34 cells (Nb2) (VHH, not shown: small tags and cut ends)
VHH: QVQLQESGGGSVQAGGSLRLACVASGGDTRPYITYWMGWYRQAPGKEREGVATIYTGGSGTYYSDSVEGRFTISQDKAQRTVYLQMNDLKPEDTAMYYCAAGNGALPPGRRLSPQNMDTWGPGTQVTVSS
Regarding B5, in assay [4], the binding entry was “binds”.
